One substance from paper PMC11572293 can be followed below.

Chains of the proteins cited; added tags and fusions are not shown.
UniProt P04406: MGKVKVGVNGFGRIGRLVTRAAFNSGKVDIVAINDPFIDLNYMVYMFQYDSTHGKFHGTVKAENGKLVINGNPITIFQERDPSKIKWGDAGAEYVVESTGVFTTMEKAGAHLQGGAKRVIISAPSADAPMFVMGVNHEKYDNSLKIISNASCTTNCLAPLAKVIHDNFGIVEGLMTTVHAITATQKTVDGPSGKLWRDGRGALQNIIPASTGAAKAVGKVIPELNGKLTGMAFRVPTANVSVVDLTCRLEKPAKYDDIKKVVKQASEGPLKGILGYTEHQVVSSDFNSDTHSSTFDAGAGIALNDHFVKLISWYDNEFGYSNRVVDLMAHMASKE
UniProt Q04206: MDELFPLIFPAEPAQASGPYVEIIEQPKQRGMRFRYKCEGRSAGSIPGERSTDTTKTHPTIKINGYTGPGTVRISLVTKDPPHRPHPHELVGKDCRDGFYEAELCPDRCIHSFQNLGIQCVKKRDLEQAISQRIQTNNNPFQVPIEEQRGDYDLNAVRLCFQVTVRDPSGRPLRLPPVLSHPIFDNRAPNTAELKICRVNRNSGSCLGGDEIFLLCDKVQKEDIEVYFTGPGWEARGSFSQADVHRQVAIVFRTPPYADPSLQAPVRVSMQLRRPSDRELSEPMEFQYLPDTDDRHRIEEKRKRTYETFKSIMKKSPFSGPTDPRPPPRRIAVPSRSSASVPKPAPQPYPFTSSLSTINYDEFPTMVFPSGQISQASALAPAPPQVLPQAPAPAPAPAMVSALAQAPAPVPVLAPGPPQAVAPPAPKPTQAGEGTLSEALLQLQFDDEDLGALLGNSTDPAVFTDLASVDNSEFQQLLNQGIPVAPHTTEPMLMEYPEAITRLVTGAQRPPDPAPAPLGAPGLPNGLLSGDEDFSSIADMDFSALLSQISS

Results are given in words; binding and its absence hold for the method and conditions named. In cells and extracts the contact can be indirect.

In the experiment the target is GAPDH (human (endogenous in MDS-L)) (UniProt P04406). Kind of experiment: co-IP; MDS-L cells treated with 0.2% Triton X-100 for 5 min and washed; whole cell lysates, equal amounts of protein, immunoprecipitated with α-tubulin, IgG and GAPDH antibodies; co-immunoprecipitated NF-κB detected by Western blotting with an anti-p65 antibody; methods name treatment of cells with GNA, paclitaxel and TN16 for 16 h.

As to “NF-κB subunit p65 (RelA) (from UniProt Q04206 1-551)”, the binding result was “no binding”.
